Some of these results come from one statement about several compounds together. At least one structure is not confirmed: it was looked up by name or label, or the drawing left a doubt.
System: P. berghei
Experiment: Protection of mice infected with P. berghei (mortality, parasite count in blood)
Type: in vivo
Settings: single injection 500 μg/mouse
Description: Appropriate solvent controls were used. Parasite growth was measured by staining the slides with Giemsa as well as [α3H]-hypoxanthine uptake. In the latter case, the cultured cells were lysed with water and the parasites collected by filtration, washed and radioactivity measured. Adult f mice (40-50 g) were infected with P. berghei by intraperitoneal injection of an aliquot of infected mouse blood. After 24 hr, the animals were given a single injection of different amounts of artemisinin derivative at a dose of 5 mg/mouse. The oral feeding was repeated after 24 hr and 48 hr. Parasite count was measured in blood before and drug therapy at different time intervals using Giemsa to stain the slides. All the infected mice die in a span of 5-8 days and the efficacy of the drugs given singly or in combination was measured in terms of parasite clearance in blood and protection against mortality.
Striking results were obtained in terms of parasite clearance and protection against mortality. The experiments were carried out with 6 mice per batch and the experiments were repeated at least 3 times. The results presented in FIG. 3 represent those obtained in a typical experiment. The results obtained in the 2nd and 3rd experiments are identical in pattern. The average pattern obtained with the infected animals is as follows. All the infected animals die in about 5-8 days. […]

## CCO[C@H]1O[C@@H]2O[C@@]3(C)CC[C@H]4[C@H](C)CC[C@@H]([C@H]1C)[C@@]24OO3 [α,β-arteether]
  death of animals: 10 to 12 days

— US7776911B2 (priority 2005, dated 2010)
